Assay results reported in doi:10.1101/2020.09.28.317172.
Results are given in words; binding and its absence hold for the method and conditions named. Binding seen in cells or lysates may run through a third protein. Some results given as binding are weak or reduced against the parent protein; the word gives no strength. For some of these results: Where a sequence is shown, tags or fusion partners need not be part of it.

Protein sequences, listed by entry. Tags and fused reporters are not part of them. Lines headed by an entry give the natural chain unless they say otherwise; changes in a name come on top. Chains listed by the source or under a name are the forms on record and can include a tag or linker.
UniProt P08753: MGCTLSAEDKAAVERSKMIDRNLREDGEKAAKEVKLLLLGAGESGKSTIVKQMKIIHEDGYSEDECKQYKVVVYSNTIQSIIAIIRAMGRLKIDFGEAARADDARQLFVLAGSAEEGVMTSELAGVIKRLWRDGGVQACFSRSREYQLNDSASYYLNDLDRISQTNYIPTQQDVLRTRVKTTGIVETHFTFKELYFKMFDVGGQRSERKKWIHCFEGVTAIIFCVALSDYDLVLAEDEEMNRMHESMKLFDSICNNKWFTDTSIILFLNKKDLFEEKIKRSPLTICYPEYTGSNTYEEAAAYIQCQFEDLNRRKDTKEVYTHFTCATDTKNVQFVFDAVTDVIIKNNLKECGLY
myc-tagged human GIV (wild type) (Q3V6T2-3, form named): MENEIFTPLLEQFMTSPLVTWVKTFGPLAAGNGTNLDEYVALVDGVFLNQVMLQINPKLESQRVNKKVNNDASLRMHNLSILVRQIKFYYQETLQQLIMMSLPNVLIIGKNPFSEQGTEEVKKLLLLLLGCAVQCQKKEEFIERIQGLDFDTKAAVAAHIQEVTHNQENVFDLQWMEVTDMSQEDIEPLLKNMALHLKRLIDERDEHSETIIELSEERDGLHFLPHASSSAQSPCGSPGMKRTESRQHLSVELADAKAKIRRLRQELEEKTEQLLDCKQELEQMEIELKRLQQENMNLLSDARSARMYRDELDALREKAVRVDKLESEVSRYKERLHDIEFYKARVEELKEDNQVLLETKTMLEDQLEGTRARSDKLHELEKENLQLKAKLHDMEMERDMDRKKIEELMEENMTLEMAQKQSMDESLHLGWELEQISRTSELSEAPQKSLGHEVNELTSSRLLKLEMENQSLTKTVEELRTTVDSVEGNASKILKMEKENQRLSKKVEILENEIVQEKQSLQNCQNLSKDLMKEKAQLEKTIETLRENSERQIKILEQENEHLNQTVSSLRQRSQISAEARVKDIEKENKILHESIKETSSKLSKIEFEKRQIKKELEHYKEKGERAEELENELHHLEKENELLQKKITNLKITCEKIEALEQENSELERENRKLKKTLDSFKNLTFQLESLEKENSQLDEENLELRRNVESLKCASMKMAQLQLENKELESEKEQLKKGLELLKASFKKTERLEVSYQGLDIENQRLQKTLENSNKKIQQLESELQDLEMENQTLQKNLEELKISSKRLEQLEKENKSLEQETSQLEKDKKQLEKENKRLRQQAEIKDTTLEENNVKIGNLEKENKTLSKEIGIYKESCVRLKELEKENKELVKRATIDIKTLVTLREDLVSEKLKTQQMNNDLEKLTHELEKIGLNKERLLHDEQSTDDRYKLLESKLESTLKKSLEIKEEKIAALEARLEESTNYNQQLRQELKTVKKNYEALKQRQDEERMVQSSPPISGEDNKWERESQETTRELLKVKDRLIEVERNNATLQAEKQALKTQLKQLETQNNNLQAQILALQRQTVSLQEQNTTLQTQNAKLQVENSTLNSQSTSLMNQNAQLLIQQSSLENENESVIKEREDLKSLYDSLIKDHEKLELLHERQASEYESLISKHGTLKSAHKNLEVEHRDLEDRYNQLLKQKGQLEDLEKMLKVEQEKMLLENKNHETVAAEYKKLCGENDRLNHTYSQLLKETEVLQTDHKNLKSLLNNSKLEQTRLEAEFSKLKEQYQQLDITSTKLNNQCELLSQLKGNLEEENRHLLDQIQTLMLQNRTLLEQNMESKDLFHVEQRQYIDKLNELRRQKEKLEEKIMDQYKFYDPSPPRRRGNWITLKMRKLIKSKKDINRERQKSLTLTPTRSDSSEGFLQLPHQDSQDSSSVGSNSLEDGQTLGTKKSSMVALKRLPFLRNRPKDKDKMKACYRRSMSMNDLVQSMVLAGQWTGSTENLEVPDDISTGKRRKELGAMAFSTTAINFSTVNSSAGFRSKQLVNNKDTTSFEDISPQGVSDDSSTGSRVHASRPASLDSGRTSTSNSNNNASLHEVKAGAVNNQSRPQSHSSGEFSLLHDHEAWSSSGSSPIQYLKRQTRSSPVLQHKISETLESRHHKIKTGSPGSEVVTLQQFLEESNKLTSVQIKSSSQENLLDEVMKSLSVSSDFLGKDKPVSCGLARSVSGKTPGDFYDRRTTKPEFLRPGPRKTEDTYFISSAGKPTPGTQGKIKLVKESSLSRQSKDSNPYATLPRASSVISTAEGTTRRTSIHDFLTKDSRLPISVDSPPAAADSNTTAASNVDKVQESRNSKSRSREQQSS
myc-tagged human GIV F1685A mutant (Q3V6T2-3, form named): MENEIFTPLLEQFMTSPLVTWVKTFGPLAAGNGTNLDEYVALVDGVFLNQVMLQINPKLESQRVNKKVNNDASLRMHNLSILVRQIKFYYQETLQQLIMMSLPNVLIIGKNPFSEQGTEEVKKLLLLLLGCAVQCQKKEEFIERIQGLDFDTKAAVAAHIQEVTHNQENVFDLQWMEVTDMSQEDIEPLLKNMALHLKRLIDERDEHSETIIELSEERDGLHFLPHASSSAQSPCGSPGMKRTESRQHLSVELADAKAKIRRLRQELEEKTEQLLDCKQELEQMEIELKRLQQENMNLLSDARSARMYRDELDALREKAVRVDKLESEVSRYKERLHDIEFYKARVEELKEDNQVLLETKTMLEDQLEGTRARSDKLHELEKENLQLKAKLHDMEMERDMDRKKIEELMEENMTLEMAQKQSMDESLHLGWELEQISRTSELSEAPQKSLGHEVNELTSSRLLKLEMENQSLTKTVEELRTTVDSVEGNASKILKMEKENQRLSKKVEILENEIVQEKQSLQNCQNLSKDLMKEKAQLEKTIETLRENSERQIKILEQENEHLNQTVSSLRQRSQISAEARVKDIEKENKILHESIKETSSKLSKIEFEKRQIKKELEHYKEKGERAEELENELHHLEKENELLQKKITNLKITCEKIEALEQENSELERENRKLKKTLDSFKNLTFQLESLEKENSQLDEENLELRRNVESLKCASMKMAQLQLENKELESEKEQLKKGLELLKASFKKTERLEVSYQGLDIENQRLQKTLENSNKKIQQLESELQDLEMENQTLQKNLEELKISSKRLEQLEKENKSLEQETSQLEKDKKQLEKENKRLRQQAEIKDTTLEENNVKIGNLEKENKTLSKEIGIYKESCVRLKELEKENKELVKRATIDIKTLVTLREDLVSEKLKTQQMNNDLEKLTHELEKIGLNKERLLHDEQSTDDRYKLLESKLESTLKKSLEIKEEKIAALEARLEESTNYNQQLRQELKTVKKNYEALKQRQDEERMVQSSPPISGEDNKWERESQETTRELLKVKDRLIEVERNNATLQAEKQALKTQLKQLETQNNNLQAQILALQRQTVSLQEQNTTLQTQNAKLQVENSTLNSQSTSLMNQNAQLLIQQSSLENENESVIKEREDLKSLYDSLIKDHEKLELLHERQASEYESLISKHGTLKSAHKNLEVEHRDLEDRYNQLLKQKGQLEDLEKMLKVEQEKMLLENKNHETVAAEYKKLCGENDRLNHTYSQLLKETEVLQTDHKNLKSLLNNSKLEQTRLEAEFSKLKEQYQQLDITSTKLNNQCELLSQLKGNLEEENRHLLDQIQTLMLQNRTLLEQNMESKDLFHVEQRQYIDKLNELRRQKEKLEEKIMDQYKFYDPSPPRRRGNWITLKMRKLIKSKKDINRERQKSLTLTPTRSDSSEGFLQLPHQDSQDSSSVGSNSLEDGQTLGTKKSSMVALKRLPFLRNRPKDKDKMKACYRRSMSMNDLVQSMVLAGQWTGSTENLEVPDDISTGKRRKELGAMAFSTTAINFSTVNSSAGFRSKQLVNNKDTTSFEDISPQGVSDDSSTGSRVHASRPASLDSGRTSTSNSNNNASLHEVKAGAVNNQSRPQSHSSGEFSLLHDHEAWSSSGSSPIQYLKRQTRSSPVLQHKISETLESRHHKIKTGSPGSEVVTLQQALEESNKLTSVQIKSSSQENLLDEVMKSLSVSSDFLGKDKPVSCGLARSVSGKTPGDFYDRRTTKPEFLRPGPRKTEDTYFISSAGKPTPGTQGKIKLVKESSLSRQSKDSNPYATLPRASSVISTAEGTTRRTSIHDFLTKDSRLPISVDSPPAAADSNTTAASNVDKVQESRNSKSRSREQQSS

B1: untagged Dvl1 (protein, UniProt O14640 1-695)
chain: MAETKIIYHMDEEETPYLVKLPVAPERVTLADFKNVLSNRPVHAYKFFFKSMDQDFGVVKEEIFDDNAKLPCFNGRVVSWLVLAEGAHSDAGSQGTDSHTDLPPPLERTGGIGDSRPPSFHPNVASSRDGMDNETGTESMVSHRRERARRRNREEAARTNGHPRGDRRRDVGLPPDSASTALSSELESSSFVDSDEDGSTSRLSSSTEQSTSSRLIRKHKRRRRKQRLRQADRASSFSSITDSTMSLNIVTVTLNMERHHFLGISIVGQSNDRGDGGIYIGSIMKGGAVAADGRIEPGDMLLQVNDVNFENMSNDDAVRVLREIVSQTGPISLTVAKCWDPTPRSYFTVPRADPVRPIDPAAWLSHTAALTGALPRYGTSPCSSAVTRTSSSSLTSSVPGAPQLEEAPLTVKSDMSAVVRVMQLPDSGLEIRDRMWLKITIANAVIGADVVDWLYTHVEGFKERREARKYASSLLKHGFLRHTVNKITFSEQCYYVFGDLCSNLATLNLNSGSSGTSDQDTLAPLPHPAAPWPLGQGYPYQYPGPPPCFPPAYQDPGFSYGSGSTGSQQSEGSKSSGSTRSSRRAPGREKERRAAGAGGSGSESDHTAPSGVGSSWRERPAGQLSRGSSPRSQASATAPGLPPPHPTTKAYTVVGGPPGGPPVRELAAVPPELTGSRQSFQKAMGNPCEFFVDIM

Columns and labels:
FLAG-tagged Gαi3 = FLAG-tagged Gαi3 (UniProt P08753); test: co-IP
[1] = target: GST-tagged Gαi3 (rat) (rat) (UniProt P08753); test: pull-down
[2] = target: myc-tagged human GIV (wild type) (human) (UniProt Q3V6T2); test: co-IP

| Molecule | binding (FLAG-tagged Gαi3) | binding [1] | binding [2] |
| --- | --- | --- | --- |
| myc-tagged human GIV (wild type) (from UniProt Q3V6T2-3 1-1870) | binds | binds |  |
| myc-tagged human GIV F1685A mutant (from UniProt Q3V6T2-3 1-1870) |  | no binding |  |
| B1 |  |  | no binding |
